Results are given in words; binding and its absence hold for the method and conditions named. Binding can be weak; no strength is given. Tags and fused reporters may be left off the sequences shown. For part of these data: In cells and extracts the contact can be indirect.

One test has as its target T1, RGB1, BiFC fusion (rice) (UniProt Q40687).
T1 sequence: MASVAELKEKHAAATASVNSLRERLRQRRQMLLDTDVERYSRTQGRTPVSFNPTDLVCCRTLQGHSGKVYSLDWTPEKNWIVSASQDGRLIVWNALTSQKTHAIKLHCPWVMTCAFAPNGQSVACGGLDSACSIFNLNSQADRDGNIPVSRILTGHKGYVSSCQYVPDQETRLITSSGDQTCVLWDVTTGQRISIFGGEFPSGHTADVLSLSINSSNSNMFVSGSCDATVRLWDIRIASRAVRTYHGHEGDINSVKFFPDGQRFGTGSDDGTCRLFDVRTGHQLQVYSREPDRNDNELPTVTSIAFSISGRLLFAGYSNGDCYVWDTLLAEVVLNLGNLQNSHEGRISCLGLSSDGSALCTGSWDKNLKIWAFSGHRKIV
Nature of the test: split reporter; BiFC, pSPYNE(R)173 and pSPYCE(MR) fusions in Arabidopsis protoplasts, incubated in the dark overnight, confocal fluorescence.
For the substance GGC2, BiFC fusion (rice), the binding entry is listed as “binds”.
Turning to GS3-1, BiFC fusion (rice), the binding result was “binds”.

The target of a further test is T2, RGB1-nLuc (rice) (UniProt Q40687).
T2 sequence: T1 sequence
Briefly: split reporter; split firefly luciferase (RGB1-nLuc plus cLuc fusions), transient expression in rice protoplasts, Luc normalised to 35S::REN.
In the case of “C-terminal cysteine-rich domain of GS3 (TV), split-luciferase fusion (rice) (domain or fragment)”, the binding entry is reported as “no binding”.
On to cLuc-GGC2 (rice), for which the binding entry is “binds”.
Still for that read-out and setting: under cLuc-GS3-1 (rice) stands “binds”; under cLuc-GS3-4 (rice) (domain or fragment), “binds”.

The target of another test is T3, RGB1 (G-beta subunit), yeast two-hybrid fusion (rice) (UniProt Q40687).
T3 sequence: T1 sequence
Nature of the test: two-hybrid; Matchmaker Two-Hybrid System (Clontech), PGADT7 and PGBKT7 fusions cotransformed into yeast AH109; selected on SD/-LW, interactions on SD/-LWHA.
GGC2, yeast two-hybrid fusion (rice): the binding entry was “binds”.
Take “GS3-1 (wild-type GS3), yeast two-hybrid fusion (rice)”: the binding result is recorded as “binds”.
Take “OSR domain of GS3 (amino acid 1-94), yeast two-hybrid fusion (rice) (domain or fragment)”: the binding entry is given as “binds”.

The target in another test is T2, RGB1-nLuc (rice). Briefly: split reporter; split firefly luciferase, competition: RGB1-nLuc plus cLuc-DEP1 or cLuc-GGC2 transiently expressed in protoplasts of ZH11, GS3-1OE and GS3-4OE, Luc normalised to 35S::REN.
Consider “GS3-1 overexpressed in GS3-1OE transgenic rice”, for which the binding entry was “binds”.
Take “GS3-4 overexpressed in GS3-4OE transgenic rice (domain or fragment)”: the binding result is given as “binds”.
For the substance cLuc-GGC2 (rice), the binding entry is given as “binds”.

A further test deals with T4, BD-RGB1 (pBRIDGE bait), yeast three-hybrid (rice) (UniProt Q40687).
T4 sequence: T1 sequence
Nature of the test: yeast three-hybrid; pGADT7 prey vectors cotransformed with pBRIDGE bait vectors in yeast AH109; selected on SD/-LWM, interactions on SD/-LWMH, 5 mM 3-aminotriazole; liquid β-galactosidase assay with CPRG.
As to “AD-GGC2 (pGADT7-GGC2), yeast three-hybrid (rice)”, the binding result is “binds”.
Regarding “AD-GS3 (pGADT7-GS3), yeast three-hybrid (rice)”, the binding entry is reported as “binds”.
Turning to “GS3 expressed as the third protein in the yeast three-hybrid assay (rice)”, the binding result is listed as “binds”.

The values above are taken from publication PMC5829277.
